Taken from: PubChem BioAssay AID1259405 (NCATS, 2018)

Purpose: 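Silenced genes that increase secreted GFP made by CHO cells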 (primary screen)
Cells: Chinese hamster CHO-K1 ovary cells with stable secreted eGFP expression
Reagents: single siRNA against mouse genes, 0.8 pmol siRNA per well (2 µl of 400 nM stock)
Timing: 3 days
Measurement: 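Percent of the per-plate non-targeting control median for intracellular GFP per well by laser scanning cytometry and for cell viability by ATP luminescence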
Scale: GFP, % of control: higher = more GFP per well, higher productivity; viability (ATP), % of control: higher = more viable cells (more ATP)
Call rule: 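Called active when intracellular GFP, relative to negative control, is at or above 120%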
Here is one part, drawn at random, of about 50,000 deposited reagents. About 4,000 of all reagents (8%) count as active. 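Mouse siRNA library applied to hamster cells; one well for each siRNA.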 The numbers tell different reagents against one gene apart.

Ccdc148 #1 gave GFP, % of control 61.1; viability (ATP), % of control 17.5; inactive.
After knock-down of Ccdc148 #2, the screen gave GFP, % of control 144; viability (ATP), % of control 90.8; active.
Against Ccdc148 #3 the deposit lists GFP, % of control 97.7; viability (ATP), % of control 96; inactive.
Silencing of Igf1 #1 came out at: GFP, % of control 107; viability (ATP), % of control 62.1; inactive.
Knock-down of Igf1 #2 resulted in: GFP, % of control 104; viability (ATP), % of control 45.9; inactive.
Igf1 #3 gave GFP, % of control 99.6; viability (ATP), % of control 44.1; inactive.
Haus2 #1 scored GFP, % of control 78.3; viability (ATP), % of control 84.6; inactive.
After knock-down of Haus2 #2 the results were GFP, % of control 60.1; viability (ATP), % of control 82.2; inactive.
With knock-down of Haus2 #3, the record shows GFP, % of control 90.2; viability (ATP), % of control 72.8; inactive.
After knock-down of Hcfc1r1 #1, the record shows GFP, % of control 92; viability (ATP), % of control 102; inactive.
Hcfc1r1 #2 gave GFP, % of control 92.5; viability (ATP), % of control 81.7; inactive.
Hcfc1r1 #3 scored GFP, % of control 78.9; viability (ATP), % of control 78.3; inactive.
P3h2 #1 showed GFP, % of control 87.1; viability (ATP), % of control 100; inactive.
Knock-down of P3h2 #2 resulted in: GFP, % of control 61.4; viability (ATP), % of control 83.8; inactive.
Tbpl2 #1 showed GFP, % of control 62.2; viability (ATP), % of control 68.7; inactive.
With knock-down of Tbpl2 #2, the record shows GFP, % of control 88.8; viability (ATP), % of control 70.2; inactive.
For Tbpl2 #3 the deposit lists GFP, % of control 57.3; viability (ATP), % of control 57.4; inactive.
Against Krt5 #1 the deposit lists GFP, % of control 75.7; viability (ATP), % of control 61.3; inactive.
Depletion of Krt5 #2 gave: GFP, % of control 84.5; viability (ATP), % of control 63.5; inactive.
With knock-down of Cdk5rap3 #1, the record shows GFP, % of control 66.9; viability (ATP), % of control 90.2; inactive.
For Cdk5rap3 #2 the deposit lists GFP, % of control 98; viability (ATP), % of control 83.2; inactive.
Silencing of Cdk5rap3 #3 gave: GFP, % of control 78.7; viability (ATP), % of control 80.1; inactive.
With knock-down of Ap1g1 #1 the results were GFP, % of control 104; viability (ATP), % of control 59; inactive.
After knock-down of Ap1g1 #2, the screen gave GFP, % of control 72.3; viability (ATP), % of control 62; inactive.
Ap1g1 #3 showed GFP, % of control 123; viability (ATP), % of control 80.7; active.

Records listed so far marked active (2):
Ccdc148 #2: GFP, % of control = 144; viability (ATP), % of control = 90.8; Outcome = active
Ap1g1 #3: GFP, % of control = 123; viability (ATP), % of control = 80.7; Outcome = active

More reagents:
With knock-down of Extl3 #1, the screen gave GFP, % of control 87.6; viability (ATP), % of control 117; inactive.
After knock-down of Extl3 #2 the results were GFP, % of control 103; viability (ATP), % of control 135; inactive.
After knock-down of Extl3 #3 the results were GFP, % of control 94.2; viability (ATP), % of control 117; inactive.
Silencing of Madd #1 gave: GFP, % of control 58.5; viability (ATP), % of control 50.3; inactive.
Madd #2 scored GFP, % of control 73.1; viability (ATP), % of control 83.4; inactive.
For Madd #3, the entry reads GFP, % of control 86; viability (ATP), % of control 52.3; inactive.
For Cdk2ap1 #1 the deposit lists GFP, % of control 64.4; viability (ATP), % of control 65.6; inactive.
Against Cdk2ap1 #2 the deposit lists GFP, % of control 94.4; viability (ATP), % of control 96.6; inactive.
After knock-down of Ca8 #1 the results were GFP, % of control 71.6; viability (ATP), % of control 57.5; inactive.
For Ca8 #2, the entry reads GFP, % of control 105; viability (ATP), % of control 94; inactive.
Gm4861 #1 showed GFP, % of control 91.5; viability (ATP), % of control 80.3; inactive.
Against Gm4861 #2, the entry reads GFP, % of control 119; viability (ATP), % of control 125; inactive.
Silencing of Gm4861 #3 came out at: GFP, % of control 86.8; viability (ATP), % of control 102; inactive.
After knock-down of Pira2 #1 the results were GFP, % of control 135; viability (ATP), % of control 81.7; active.
For Pira2 #2, the entry reads GFP, % of control 55.9; viability (ATP), % of control 51; inactive.
Pira2 #3 showed GFP, % of control 23.5; viability (ATP), % of control 28.3; inactive.
